The target of one experiment is MDM2. The experiment can be described thus: NGS-enhanced phage display, control selection on MDM2, three replicates.
A further experiment has as its target eIF4A. Briefly: NGS-enhanced phage display, control selection on eIF4A, three replicates.

No constants are given. Whether binding was seen depends on the method and setting.

B1: EE-6 (peptide)
peptide: ACETGFFLRCG
modifications: C2-C10 disulphide bond (C7C constrained loop)
For B1, the binding entry with MDM2 and in the experiment with eIF4A was “no binding” in each case.

B2: EE-5 (peptide)
peptide: ACELGFYRLCG
modifications: C2-C10 disulphide bond (C7C constrained loop)
Consider B2, for which the binding result in the experiment with MDM2 and with eIF4A was “no binding” throughout.

B3: EE-7 (peptide)
peptide: ACETGYFSQCG
modifications: C2-C10 disulphide bond (C7C constrained loop)
For the molecule B3, the binding entry in the experiment with MDM2 and with eIF4A was “no binding” each time.

B4: EE-8 (peptide)
peptide: ACETGFYKTCG
modifications: C2-C10 disulphide bond (C7C constrained loop)
As for B4, the binding entry with MDM2 and with eIF4A was “no binding” in each case.

B5: EE-4 (peptide)
peptide: ACETGFFLKCG
modifications: C2-C10 disulphide bond (C7C constrained loop)
For B5, the binding entry with MDM2 and with eIF4A was “no binding” each time.

B6: EE-1 (peptide)
peptide: ACETGFFTGCG
modifications: C2-C10 disulphide bond (C7C constrained loop)
For the molecule B6, the binding entry with MDM2 and with eIF4A was “no binding” each time.

B7: EE-3 (peptide)
peptide: ACELGYYNDCG
modifications: C2-C10 disulphide bond (C7C constrained loop)
Take B7: the binding entry with MDM2 and with eIF4A was “no binding” throughout.

B8: Peptide 45 (peptide)
peptide: ACIHSPTSLCG
modifications: C2-C10 disulphide bond (C7C constrained loop)
B8: the binding entry with MDM2 and in the experiment with eIF4A was “no binding” in each case.

B9: EE-9 (peptide)
peptide: ACEMGYFGNCG
modifications: C2-C10 disulphide bond (C7C constrained loop)
For the molecule B9, the binding result with MDM2 and in the experiment with eIF4A was “no binding” each time.

The record behind these values is patent US20220242906A1.
